Measured values reported in patent US7666868B2, “N-sulphonylpyrroles and their use as histone deacetylase inhibitors” (4SC AG, priority 2005, dated 2010).
Some results were stated once for a whole list of compounds, not compound by compound. Some compounds share one range, which may span the group rather than tell each member.

By UniProt entry, the sequences of proteins in these tests, tags left out.
UniProt Q13547, whole entry: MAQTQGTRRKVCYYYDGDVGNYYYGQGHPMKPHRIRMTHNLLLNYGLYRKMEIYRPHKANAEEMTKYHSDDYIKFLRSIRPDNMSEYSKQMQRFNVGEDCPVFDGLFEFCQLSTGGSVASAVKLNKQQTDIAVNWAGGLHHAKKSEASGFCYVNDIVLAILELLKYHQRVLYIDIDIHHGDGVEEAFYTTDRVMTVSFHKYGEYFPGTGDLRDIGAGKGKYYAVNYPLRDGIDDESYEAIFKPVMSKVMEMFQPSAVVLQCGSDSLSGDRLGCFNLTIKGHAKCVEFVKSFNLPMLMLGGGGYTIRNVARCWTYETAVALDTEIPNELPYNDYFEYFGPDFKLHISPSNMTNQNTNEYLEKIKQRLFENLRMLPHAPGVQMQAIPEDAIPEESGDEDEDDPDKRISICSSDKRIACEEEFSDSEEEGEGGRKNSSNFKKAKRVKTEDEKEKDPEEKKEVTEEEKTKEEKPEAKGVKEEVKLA

Experiments:
[1] = tested on: HDAC activity derived from HeLa cell nuclear extracts (mixture of class I and II HDACs); test: Fluorimetric HDAC activity assay with HeLa cell nuclear extract; format: biochemical, human; conditions: substrate Ac-NH-GGK(Ac)-AMC 25 μM, 90 min at 30° C., limits printed with their own units (nM to μM), read-out: IC50 (HDAC inhibitory activity)
[2] = biological target: T1, recombinant flag-HDAC1 (Human HDAC1 fused with the flag epitope) (Homo sapiens, UniProt Q13547); test: rHDAC1 enzymatic assay; format: biochemical; conditions: flag-HDAC1, 6 μM Ac-NH-GGK(Ac)-AMC, 3 h at 30° C.; limits printed with their own units (nM to μM)
T1 construct: made in house

## COc1ccc(-c2cccc(S(=O)(=O)n3ccc(/C=C/C(=O)NO)c3)c2)cn1 [Compound 11, (E)-N-Hydroxy-3-{1-[3-(6-methoxy-pyridin-3-yl)-benzenesulfonyl]-1H-pyrrol-3-yl}-acrylamide]
[1]
  IC50: 0.32 to 10000 nM
[2]
  IC50: 1 to 940 nM

## Nc1ccccc1NC(=O)/C=C/c1ccn(S(=O)(=O)c2cccc(-c3cccc(CCN4CCOCC4)c3)c2)c1 [Compound 18, (E)-N-(2-Amino-phenyl)-3-{1-[3′-(2-morpholin-4-yl-ethyl)-biphenyl-3-sulfonyl]-1H-pyrrol-3-yl}-acrylamide]
[1]
  IC50: 0.32 to 10000 nM
[2]
  IC50: 1 to 940 nM

## O=C(/C=C/c1ccn(S(=O)(=O)c2ccc(-c3ccc(CNC4CCCC4)cc3)cc2)c1)NO [Compound 84, (E)-3-[1-(4′-Cyclopentylaminomethyl-biphenyl-4-sulfonyl)-1H-pyrrol-3-yl]-N-hydroxy-acrylamide]
[1]
  IC50: 1.7 to 32000 nM
[2]
  IC50: 1 to 940 nM

## O=C(/C=C/c1ccn(S(=O)(=O)c2ccc(-c3cccc(CCN4CCOCC4)c3)cc2)c1)NO [Compound 9, (E)-N-Hydroxy-3-{1-[3′-(2-morpholin-4-yl-ethyl)-biphenyl-4-sulfonyl]-1H-pyrrol-3-yl}-acrylamide]
[1]
  IC50: 0.32 to 10000 nM
[2]
  IC50: 1 to 940 nM

## Nc1ccc(-c2cccc(S(=O)(=O)n3ccc(/C=C/C(=O)Nc4ccccc4N)c3)c2)cn1 [Compound 17, (E)-N-(2-Amino-phenyl)-3-{1-[3-(6-amino-pyridin-3-yl)-benzenesulfonyl]-1H-pyrrol-3-yl}-acrylamide]
[1]
  IC50: 0.32 to 10000 nM
[2]
  IC50: 1 to 940 nM

## NCc1cccc(-c2ccc(S(=O)(=O)n3ccc(/C=C/C(=O)NO)c3)s2)c1 [Compound 94, (E)-3-{1-[5-(3-Aminomethyl-phenyl)-thiophene-2-sulfonyl]-1H-pyrrol-3-yl}-N-hydroxy-acrylamide]
[1]
  IC50: 1.7 to 32000 nM
[2]
  IC50: 1 to 940 nM

## CN1CCN(c2cc(-c3ccc(S(=O)(=O)n4ccc(/C=C/C(=O)Nc5ccccc5N)c4)cc3)ccn2)CC1 [Compound 48, (E)-N-(2-Amino-phenyl)-3-(1-{4-[2-(4-methyl-piperazin-1-yl)-pyridin-4-yl]-benzenesulfonyl}-1H-pyrrol-3-yl)-acrylamide]
[1]
  IC50: 0.32 to 10000 nM
[2]
  IC50: 1 to 940 nM

## Cn1ccc2cc(-c3ccc(S(=O)(=O)n4ccc(/C=C/C(=O)NO)c4)cc3)ccc21 [Compound 1, (E)-N-Hydroxy-3-{1-[4-(1-methyl-1H-indol-5-yl)-benzenesulfonyl]-1H-pyrrol-3-yl}-acrylamide]
[1]
  IC50: 0.75 to 7500 nM
[2]
  IC50: 1 to 940 nM

## O=C(/C=C/c1ccn(S(=O)(=O)c2ccc(-c3cccc(C(F)(F)F)c3)cc2)c1)NO [Compound 85, (E)-N-Hydroxy-3-[1-(3′-trifluoromethyl-biphenyl-4-sulfonyl)-1H-pyrrol-3-yl]acrylamide]
[1]
  IC50: 1.7 to 32000 nM
[2]
  IC50: 1 to 940 nM

## Nc1ccccc1NC(=O)/C=C/c1ccn(S(=O)(=O)c2ccc(-c3ccc(OCCN4CCCC4)cc3)cc2)c1 [Compound 108, (E)-N-(2-Amino-phenyl)-3-{1-[4′-(2-pyrrolidin-1-yl-ethoxy)-biphenyl 4-sulfonyl]-1H-pyrrol-3-yl}-acrylamide]
[1]
  IC50: 1.7 to 32000 nM
[2]
  IC50: 1 to 940 nM

## O=C(/C=C/c1ccn(S(=O)(=O)c2ccc(-c3cccc(CN4CCOCC4)c3)cc2)c1)NO [Compound 64, (E)-N-Hydroxy-3-[1-(3′-morpholin-4-ylmethyl-biphenyl-4-sulfonyl)-1H-pyrrol-3-yl]-acrylamide]
[1]
  IC50: 1.7 to 32000 nM
[2]
  IC50: 1 to 940 nM

## O=C(/C=C/c1ccn(S(=O)(=O)c2ccc(-c3cccc(OCCCN4CCCC4)c3)cc2)c1)NO [Compound 72, (E)-N-Hydroxy-3-{1-[3′-(3-pyrrolidin-1-yl-propoxy)-biphenyl-4-sulfonyl]-1H-pyrrol-3-yl}-acrylamide]
[1]
  IC50: 1.7 to 32000 nM
[2]
  IC50: 1 to 940 nM

## Cc1nc(-c2ccc(S(=O)(=O)n3ccc(/C=C/C(=O)NO)c3)s2)cs1 [Compound 90, (E)-N-Hydroxy-3-{1-[5-(2-methyl-thiazol-4-yl)-thiophene-2-sulfonyl]-1H-pyrrol-3-yl}-acrylamide]
[1]
  IC50: 1.7 to 32000 nM
[2]
  IC50: 1 to 940 nM

## O=C(/C=C/c1ccn(S(=O)(=O)c2ccc(-c3ccc(N4CCOCC4)cc3)cc2)c1)NO [Compound 71, (E)-N-Hydroxy-3-[1-(4′-morpholin-4-yl-biphenyl-4-sulfonyl)-1H-pyrrol-3-yl]-acrylamide]
[1]
  IC50: 1.7 to 32000 nM
[2]
  IC50: 1 to 940 nM

## O=C(/C=C/c1ccn(S(=O)(=O)c2ccc(-c3ccc(CCN4CCOCC4)cc3)s2)c1)NO [Compound 61, (E)-N-Hydroxy-3-(1-{5-[4-(2-morpholin-4-yl-ethyl)-phenyl]-thiophene-2-sulfonyl}-1H-pyrrol-3-yl)-acrylamide]
[1]
  IC50: 0.32 to 10000 nM
[2]
  IC50: 1 to 940 nM

## Cn1cc(-c2ccc(S(=O)(=O)n3ccc(/C=C/C(=O)NO)c3)cc2)cn1 [Compound 2, (E)-N-Hydroxy-3-{1-[4-(1-methyl-1H-pyrazol-4-yl)-benzenesulfonyl]-1H-pyrrol-3-yl}-acrylamide]
[1]
  IC50: 0.75 to 7500 nM
[2]
  IC50: 1 to 940 nM

## CN1CCN(c2cc(-c3ccc(S(=O)(=O)n4ccc(/C=C/C(=O)NO)c4)cn3)ccn2)CC1 [Compound 103, (E)-N-Hydroxy-3-{1-[2′-(4-methyl-piperazin-1-yl)-[2,4′]bipyridinyl-5-sulfonyl]-1H-pyrrol-3-yl}-acrylamide]
[1]
  IC50: 1.7 to 32000 nM
[2]
  IC50: 1 to 940 nM

## CC(=O)Nc1cccc(-c2ccc(S(=O)(=O)n3ccc(/C=C/C(=O)Nc4ccccc4N)c3)cc2)c1 [Compound 40, (E)-3-[1-(3′-Acetylamino-biphenyl-4-sulfonyl)-1H-pyrrol-3-yl]-N-(2-amino-phenyl)-acrylamide]
[1]
  IC50: 0.32 to 10000 nM
[2]
  IC50: 1 to 940 nM

## CN1CCN(CCOc2ccc(-c3ccc(S(=O)(=O)n4ccc(/C=C/C(=O)NO)c4)s3)cc2)CC1 [Compound 55, (E)-N-Hydroxy-3-[1-(5-{4-[2-(4-methyl-piperazin-1-yl)-ethoxy]-phenyl}-thiophene-2-sulfonyl)-1H-pyrrol-3-yl]-acrylamide]
[1]
  IC50: 0.32 to 10000 nM
[2]
  IC50: 1 to 940 nM

## O=C(/C=C/c1ccn(S(=O)(=O)c2cccc(-c3ccc(CN4CCOCC4)cc3)c2)c1)NO [Compound 36, (E)-N-Hydroxy-3-[1-(4′-morpholin-4-ylmethyl-biphenyl-3-sulfonyl)-1H-pyrrol-3-yl]-acrylamide]
[1]
  IC50: 0.32 to 10000 nM
[2]
  IC50: 1 to 940 nM

## Nc1ccccc1NC(=O)/C=C/c1ccn(S(=O)(=O)c2cccc(-c3ccc(CCN4CCOCC4)cc3)c2)c1 [Compound 19, (E)-N-(2-Amino-phenyl)-3-{1-[4′-(2-morpholin-4-yl-ethyl)-biphenyl-3-sulfonyl]-1H-pyrrol-3-yl}-acrylamide]
[1]
  IC50: 0.32 to 10000 nM
[2]
  IC50: 1 to 940 nM

## O=C(/C=C/c1ccn(S(=O)(=O)c2ccc(-c3ccc(O)cc3)cc2)c1)NO [Compound 67, (E)-N-Hydroxy-3-[1-(4′-hydroxy-biphenyl-4-sulfonyl)-1H-pyrrol-3-yl]acrylamide]
[1]
  IC50: 1.7 to 32000 nM
[2]
  IC50: 1 to 940 nM

## CN(C)Cc1ccccc1-c1ccc(S(=O)(=O)n2ccc(/C=C/C(=O)NO)c2)cc1 [Compound 27, (E)-3-[1-(2′-Dimethylaminomethyl-biphenyl-4-sulfonyl)-1H-pyrrol-3-yl]-N-hydroxy-acrylamide]
[1]
  IC50: 0.32 to 10000 nM
[2]
  IC50: 1 to 940 nM

## CN1CCN(Cc2ccc(-c3cccc(S(=O)(=O)n4ccc(/C=C/C(=O)NO)c4)c3)cc2)CC1 [Compound 62, (E)-N-Hydroxy-3-{1-[4′-(4-methyl-piperazin-1-ylmethyl)-biphenyl-3-sulfonyl]-1H-pyrrol-3-yl}-acrylamide]
[1]
  IC50: 0.32 to 10000 nM
[2]
  IC50: 1 to 940 nM

## CN(C)Cc1ccc(-c2ccc(S(=O)(=O)n3ccc(/C=C/C(=O)NO)c3)cn2)cc1 [Compound 105, (E)-3-{1-[6-(4-Dimethylaminomethyl-phenyl)-pyridine-3-sulfonyl]-1H-pyrrol-4-yl}-N-hydroxy-acrylamide]
[1]
  IC50: 1.7 to 32000 nM
[2]
  IC50: 1 to 940 nM

## O=C(/C=C/c1ccn(S(=O)(=O)c2ccc(-c3cccc(OCCN4CCCC4)c3)cc2)c1)NO [Compound 80, (E)-N-Hydroxy-3-{1-[3′-(2-pyrrolidin-1-yl-ethoxy)-biphenyl-4-sulfonyl]-1H-pyrrol-3-yl}-acrylamide]
[1]
  IC50: 1.7 to 32000 nM
[2]
  IC50: 1 to 940 nM

## CN(C)Cc1ccc(-c2cccc(S(=O)(=O)n3ccc(/C=C/C(=O)NO)c3)c2)cc1 [Compound 37, (E)-3-[1-(4′-Dimethylaminomethyl-biphenyl-3-sulfonyl)-1H-pyrrol-3-yl]-N-hydroxy-acrylamide]
[1]
  IC50: 0.32 to 10000 nM
[2]
  IC50: 1 to 940 nM

## O=C(/C=C/c1ccn(S(=O)(=O)c2ccc(-c3ccc4c(c3)OCO4)cc2)c1)NO [Compound 65, (E)-3-[1-(4-Benzo[1,3]dioxol-5-yl-benzenesulfonyl)-1H-pyrrol-3-yl]-N-hydroxy-acrylamide]
[1]
  IC50: 1.7 to 32000 nM
[2]
  IC50: 1 to 940 nM

## Nc1ccccc1NC(=O)/C=C/c1ccn(S(=O)(=O)c2ccc(-c3cnn(Cc4ccccc4)c3)cc2)c1 [Compound 35, (E)-N-(2-Amino-phenyl)-3-{1-[4-(1-benzyl-1H-pyrazol-4-yl)-benzenesulfonyl]-1H-pyrrol-3-yl}-acrylamide]
[1]
  IC50: 0.32 to 10000 nM
[2]
  IC50: 1 to 940 nM

## CN(C)Cc1cccc(-c2ccc(S(=O)(=O)n3ccc(/C=C/C(=O)Nc4ccccc4N)c3)cc2)c1 [Compound 96, (E)-N-(2-Amino-phenyl)-3-[1-(3′-dimethylaminomethyl-biphenyl-4-sulfonyl)-1H-pyrrol-3-yl]-acrylamide]
[1]
  IC50: 1.7 to 32000 nM
[2]
  IC50: 1 to 940 nM

## O=C(/C=C/c1ccn(S(=O)(=O)c2cccc(-c3cccc(CN4CCOCC4)c3)c2)c1)NO [Compound 31, (E)-N-Hydroxy-3-[1-(3′-morpholin-4-ylmethyl-biphenyl-3-sulfonyl)-1H-pyrrol-3-yl]-acrylamide]
[1]
  IC50: 0.32 to 10000 nM
[2]
  IC50: 1 to 940 nM

## O=C(/C=C/c1ccn(S(=O)(=O)c2ccc(-c3cn(CCN4CCOCC4)nn3)cc2)c1)NO [Compound 83, (E)-N-Hydroxy-3-(1-{4-[1-(2-morpholin-4-yl-ethyl)-1H-[1,2,3]triazol-4-yl]-benzenesulfonyl}-1H-pyrrol-3-yl)-acrylamide]
[1]
  IC50: 1.7 to 32000 nM
[2]
  IC50: 1 to 940 nM
